PubChem BioAssay AID1508588 – Peter MacCallum Cancer Centre, 2020
The deposit covers about 18,000 reagents; this is an unselected part. 790 of them (4.4%) were called active. 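Calls rest on a combination of fold-change classes in drug and vehicle arms, not all shown here.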

Purpose: 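Which gene losses make BRAF-mutant melanoma cells more responsive to vemurafenib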 (primary screen)
Cells: human WM266.4 melanoma cells (BRAF V600 mutant)
Reagent: siRNA pool against human genes, 40 nM
Duration: 96 h from transfection to read-out
Challenge: vemurafenib 300 nM (about IC25), added 48 h after transfection, for 48 h; comparison arm got DMSO vehicle only
Measurement: 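Cell gain (DAPI nuclei at end minus before drug, mean of two replicates) and medium lactate by absorbance per cell, both as ratio to non-targeting siRNA, also grouped into fold-change classes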
Reading the numbers: cell gain with vemurafenib: higher = more cell gain than with non-targeting siRNA; lactate per cell with vemurafenib: higher = more lactate made per cell
Call rule: 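Enhancement is called by pairing each knock-down's vehicle-arm and drug-arm fold-change classes for viability or glycolysis; which class combinations qualify is not given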
Meaning of the calls: active = enhances vemurafenib effect; inactive = no enhancement seen

With MAP2, what was measured?
cell gain with vemurafenib: 0.82; lactate per cell with vemurafenib: 0.78; activity call: inactive

With SRSF4, what does the deposit list?
cell gain with vemurafenib: 0.6; lactate per cell with vemurafenib: 0.67; activity call: inactive

For ZNF12, how do the results read?
cell gain with vemurafenib: 1; lactate per cell with vemurafenib: 0.68; activity call: inactive

With DEFB112, what does the deposit list?
cell gain with vemurafenib: 0.54; lactate per cell with vemurafenib: 2.24; activity call: inactive

For PNLIPRP2, what was measured?
cell gain with vemurafenib: 0.83; lactate per cell with vemurafenib: 1.05; activity call: inactive

What is on record for ZNF320?
cell gain with vemurafenib: 0.4; lactate per cell with vemurafenib: 0.4; activity call: inactive

With CLTB, what does the deposit list?
cell gain with vemurafenib: -0.16; lactate per cell with vemurafenib: 3.54; activity call: inactive

For SLC16A12, what does the deposit list?
cell gain with vemurafenib: 0.99; lactate per cell with vemurafenib: 0.75; activity call: inactive

What is on record for AADAT?
cell gain with vemurafenib: 1; lactate per cell with vemurafenib: 0.84; activity call: inactive

For DYNAP, how do the results read?
cell gain with vemurafenib: 0.9; lactate per cell with vemurafenib: 0.31; activity call: inactive

With RNMT, what was measured?
cell gain with vemurafenib: 0.79; lactate per cell with vemurafenib: 0.17; activity call: inactive

What is on record for ANKS1A?
cell gain with vemurafenib: 0.3; lactate per cell with vemurafenib: 1.05; activity call: inactive

What is on record for PTGS1?
cell gain with vemurafenib: 0.23; lactate per cell with vemurafenib: 0.84; activity call: inactive

With STK31, what was measured?
cell gain with vemurafenib: 0.45; lactate per cell with vemurafenib: 1.29; activity call: inactive

What did the screen give for TERF1?
cell gain with vemurafenib: 0.42; lactate per cell with vemurafenib: 0.82; activity call: inactive

What is on record for DCUN1D3?
cell gain with vemurafenib: 0.24; lactate per cell with vemurafenib: 1.54; activity call: inactive

With BHLHA15, what does the deposit list?
cell gain with vemurafenib: 0.86; lactate per cell with vemurafenib: 0.88; activity call: inactive

What is on record for PRKAG1?
cell gain with vemurafenib: 0.6; lactate per cell with vemurafenib: 1.03; activity call: inactive

With VSIR, what does the deposit list?
cell gain with vemurafenib: 0.54; lactate per cell with vemurafenib: 1.88; activity call: inactive

With C3orf62, what was measured?
cell gain with vemurafenib: 0.23; lactate per cell with vemurafenib: 0.44; activity call: inactive

What did the screen give for F8A1?
cell gain with vemurafenib: 0.63; lactate per cell with vemurafenib: 1.66; activity call: inactive

With SYNRG, how do the results read?
cell gain with vemurafenib: 0.35; lactate per cell with vemurafenib: 0.52; activity call: inactive

For RIMKLA, what does the deposit list?
cell gain with vemurafenib: 0.49; lactate per cell with vemurafenib: 1.69; activity call: inactive

How did the screen score UBA52?
cell gain with vemurafenib: 0.05; lactate per cell with vemurafenib: 1.6; activity call: inactive

How did the screen score BLZF1?
cell gain with vemurafenib: 1.06; lactate per cell with vemurafenib: 1.02; activity call: inactive

Which result is listed for CAMK2N1?
cell gain with vemurafenib: 0.72; lactate per cell with vemurafenib: 0.92; activity call: inactive

Already shown: an excerpt of the list.
PRKAG1: cell gain with vemurafenib = 0.6; lactate per cell with vemurafenib = 1.03; activity call = inactive
VSIR: cell gain with vemurafenib = 0.54; lactate per cell with vemurafenib = 1.88; activity call = inactive
C3orf62: cell gain with vemurafenib = 0.23; lactate per cell with vemurafenib = 0.44; activity call = inactive
F8A1: cell gain with vemurafenib = 0.63; lactate per cell with vemurafenib = 1.66; activity call = inactive
SYNRG: cell gain with vemurafenib = 0.35; lactate per cell with vemurafenib = 0.52; activity call = inactive

More results follow.
What did the screen give for TRO?
cell gain with vemurafenib: 0.36; lactate per cell with vemurafenib: 0.69; activity call: inactive

With PPP3R1, what does the deposit list?
cell gain with vemurafenib: 0.51; lactate per cell with vemurafenib: 0.42; activity call: inactive

With ANXA7, how do the results read?
cell gain with vemurafenib: 0.7; lactate per cell with vemurafenib: 0.41; activity call: inactive

How did the screen score IL38?
cell gain with vemurafenib: 0.5; lactate per cell with vemurafenib: 0.5; activity call: inactive

What did the screen give for PIAS2?
cell gain with vemurafenib: 0.48; lactate per cell with vemurafenib: 1.7; activity call: inactive

For UCP1, what was measured?
cell gain with vemurafenib: 0.96; lactate per cell with vemurafenib: 0.54; activity call: inactive

For PCBP4, what was measured?
cell gain with vemurafenib: 0.87; lactate per cell with vemurafenib: 0.9; activity call: inactive

Which result is listed for DNAJC16?
cell gain with vemurafenib: 1.06; lactate per cell with vemurafenib: 0.78; activity call: inactive

With PAK1, what does the deposit list?
cell gain with vemurafenib: 0.53; lactate per cell with vemurafenib: 1.21; activity call: inactive

What is on record for ANKRD28?
cell gain with vemurafenib: 0.79; lactate per cell with vemurafenib: 0.83; activity call: inactive

How did the screen score BTN1A1?
cell gain with vemurafenib: 0.59; lactate per cell with vemurafenib: 1.14; activity call: inactive

How did the screen score FREY1?
cell gain with vemurafenib: 0.25; lactate per cell with vemurafenib: 1.35; activity call: inactive

With C1QTNF9B, what was measured?
cell gain with vemurafenib: 1.27; lactate per cell with vemurafenib: 0.99; activity call: inactive

What is on record for ENKD1?
cell gain with vemurafenib: 1.02; lactate per cell with vemurafenib: 1.02; activity call: inactive

Which result is listed for CMKLR2?
cell gain with vemurafenib: 0.57; lactate per cell with vemurafenib: 0.84; activity call: inactive

What did the screen give for SUN1?
cell gain with vemurafenib: 0.56; lactate per cell with vemurafenib: 1.7; activity call: inactive

Which result is listed for GAL3ST2?
cell gain with vemurafenib: 0.48; lactate per cell with vemurafenib: 1.44; activity call: inactive

With KCNA3, what does the deposit list?
cell gain with vemurafenib: 0.98; lactate per cell with vemurafenib: 0.72; activity call: inactive

How did the screen score BMPR2?
cell gain with vemurafenib: 0.53; lactate per cell with vemurafenib: 1.16; activity call: inactive

How did the screen score EXOSC9?
cell gain with vemurafenib: 0.22; lactate per cell with vemurafenib: 1.81; activity call: inactive

For TNFSF13B, what does the deposit list?
cell gain with vemurafenib: 0.47; lactate per cell with vemurafenib: 1.06; activity call: inactive

How did the screen score GABRB2?
cell gain with vemurafenib: 0.16; lactate per cell with vemurafenib: 1.19; activity call: inactive

For ATXN7L1, what was measured?
cell gain with vemurafenib: 0.82; lactate per cell with vemurafenib: 0.87; activity call: inactive

With MYBPHL, what does the deposit list?
cell gain with vemurafenib: -0.03; lactate per cell with vemurafenib: 2.4; activity call: inactive

What is on record for OR1L8?
cell gain with vemurafenib: 0.68; lactate per cell with vemurafenib: 0.84; activity call: inactive

For CEP70, how do the results read?
cell gain with vemurafenib: 0.27; lactate per cell with vemurafenib: 1.27; activity call: inactive
